# Assay results as given in the supplement of paper PMC4604168 (melanoma cell lines).
# The list shows a part of the results. Many values rest on one well or one pass, so single values are uncertain.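 Imaging used 1,536-well plates; nuclei positive for cleaved PARP by antibody were divided by total DNA-stained nuclei to yield the apoptosis fraction. Doses for screening kept most cells viable, and cell lines differ markedly in resting and induced cleaved-PARP levels.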
# Key:
# Test in all cases: cleaved PARP positive nuclei fraction relative to DMSO control; melanoma cells; higher = more apoptosis
# Details in all cases: library dose: low library concentration; 72 h
# COLO792 = test system: COLO792
# COLO800 = test system: COLO800
# COLO829 = test system: COLO829
# G361 = test system: G361
# IPC-298 = test system: IPC-298
# IST-MEL1 = test system: IST-MEL1
# LB2518-MEL = test system: LB2518-MEL
# LOXIMVI = test system: LOXIMVI
# MZ2-MEL = test system: MZ2-MEL
# MeWo = test system: MeWo
# RPMI7951 = test system: RPMI7951
# RVH-421 = test system: RVH-421
# SkMel28 = test system: SkMel28
# SkMel2 = test system: SkMel2
# SkMel30 = test system: SkMel30
# SkMel5 = test system: SkMel5
# UACC257 = test system: UACC257
# UACC62 = test system: UACC62
Compound,cleaved PARP positive nuclei fraction (COLO792) [%],cleaved PARP positive nuclei fraction (COLO800) [%],cleaved PARP positive nuclei fraction (COLO829) [%],cleaved PARP positive nuclei fraction (G361) [%],cleaved PARP positive nuclei fraction (IPC-298) [%],cleaved PARP positive nuclei fraction (IST-MEL1) [%],cleaved PARP positive nuclei fraction (LB2518-MEL) [%],cleaved PARP positive nuclei fraction (LOXIMVI) [%],cleaved PARP positive nuclei fraction (MZ2-MEL) [%],cleaved PARP positive nuclei fraction (MeWo) [%],cleaved PARP positive nuclei fraction (RPMI7951) [%],cleaved PARP positive nuclei fraction (RVH-421) [%],cleaved PARP positive nuclei fraction (SkMel28) [%],cleaved PARP positive nuclei fraction (SkMel2) [%],cleaved PARP positive nuclei fraction (SkMel30) [%],cleaved PARP positive nuclei fraction (SkMel5) [%],cleaved PARP positive nuclei fraction (UACC257) [%],cleaved PARP positive nuclei fraction (UACC62) [%]
"Cc1ccc(Nc2nccc(N(C)c3ccc4c(C)n(C)nc4c3)n2)cc1S(N)(=O)=O [Pazopanib] + COc1ccc(-c2ccc3c(N4CCOCC4)nc(N4C[C@@H](C)O[C@@H](C)C4)nc3n2)cc1CO [KU0063794] (first compound 0.4 µM, partner dose 0.02 µM)",103,125,153,272,144,82.4,75.9,73.3,178,63.2,242,123,129,142,29.4,41.5,141,69.8
"Cc1cc(Nc2cc(N3CCN(C)CC3)nc(Sc3ccc(NC(=O)C4CC4)cc3)n2)n[nH]1 [Tozasertib] + N#Cc1c(O)c2c(-c3ccc(-c4ccccc4O)cc3)csc2[nH]c1=O [A769662] (first compound 0.006 µM, partner dose 2 µM)",83.4,185,83.9,119,88.8,65.8,80.3,163,67.1,118,198,41.5,114,44.1,66,76.1,80.9,92.4
"Cc1cc(Nc2cc(N3CCN(C)CC3)nc(Sc3ccc(NC(=O)C4CC4)cc3)n2)n[nH]1 [Tozasertib] + c1cc(-c2cnn3cc(-c4ccc(OCCN5CCCCC5)cc4)cnc23)ccn1 [Dorsomorphin] (first compound 0.006 µM, partner dose 0.4 µM)",38,70.2,134,87.9,275,228,167,103,35.7,263,52.8,70.7,71.4,52.6,62.8,63.4,53.4,121
"COc1cc([C@@H]2c3cc4c(cc3[C@@H](O[C@@H]3O[C@@H]5CO[C@@H](C)O[C@H]5[C@H](O)[C@H]3O)[C@H]3COC(=O)[C@H]23)OCO4)cc(OC)c1O [etoposide] + Cn1cc(/C=C2\C(=O)Nc3cccnc32)c2ccccc21 [GW441756] (first compound 0.02 µM, partner dose 0.4 µM)",161,149,39.9,172,122,74,211,165,102,45.3,70.7,78.2,19.3,31.6,83,81.8,48.6,39.2
"O=C(Nc1cc(C(F)(F)F)cc(C(F)(F)F)c1)c1cc(Cl)ccc1O + CCc1ccc(CCOc2ccc(CC3SC(=O)NC3=O)cc2)nc1 [pioglitazone] (first compound 0.016 µM, partner dose 2 µM)",66.5,116,45.5,66.3,46.5,127,71.6,118,168,45.7,46.6,126,53.4,173,374,74.1,50.5,49.2
"Cc1cc(Nc2cc(N3CCN(C)CC3)nc(Sc3ccc(NC(=O)C4CC4)cc3)n2)n[nH]1 [Tozasertib] + CCN(CC)CCCCNc1ncc2cc(-c3cc(OC)cc(OC)c3)c(NC(=O)NC(C)(C)C)nc2n1 [PD173074] (first compound 0.006 µM, partner dose 0.1 µM)",28.5,191,43.1,79.2,48.9,113,316,182,47.1,63.9,76.1,44.4,154,135,51.9,133,77.6,110
"Cc1cn(-c2cc(NC(=O)c3ccc(C)c(Nc4nccc(-c5cccnc5)n4)c3)cc(C(F)(F)F)c2)cn1 [nilotinib] + COc1ccc(-c2ccc3c(N4CCOCC4)nc(N4C[C@@H](C)O[C@@H](C)C4)nc3n2)cc1CO [KU0063794] (first compound 0.2 µM, partner dose 0.02 µM)",34.2,86.1,93.3,86.5,120,114,122,84.7,67.7,66.6,107,136,266,137,113,68,204,201
"O=C(/C=C/c1cccnc1)NCCCCC1CCN(C(=O)c2ccccc2)CC1 + CCCCCCCCCCCC1=C(O)C(=O)C=C(O)C1=O [Embelin] (first compound 0.01 µM, partner dose 1.2 µM)",388,321,191,1090,261,93.8,331,178,203,141,107,76,37.7,235,38.6,157,81.5,64.7
"O=C(/C=C/c1cccnc1)NCCCCC1CCN(C(=O)c2ccccc2)CC1 + CC(C)CCN1c2nc(Nc3cc(F)c(O)c(F)c3)ncc2N(C)C(=O)C1C [BID1870] (first compound 0.01 µM, partner dose 0.2 µM)",473,116,502,4970,233,59.8,259,111,373,103,103,76.9,103,577,91.7,74.2,160,160
"O=C(/C=C/c1cccnc1)NCCCCC1CCN(C(=O)c2ccccc2)CC1 + COc1ccc(COc2ccc(Cc3cnc(N)nc3N)cc2OC)cc1 [GW2580] (first compound 0.01 µM, partner dose 1 µM)",226,273,282,3740,774,31.5,333,35.6,654,80.2,99.7,113,31.4,1260,78.4,92,8.78,309
"O=C(/C=C/c1cccnc1)NCCCCC1CCN(C(=O)c2ccccc2)CC1 + Cn1cc(/C=C2\C(=O)Nc3cccnc32)c2ccccc21 [GW441756] (first compound 0.01 µM, partner dose 0.4 µM)",357,162,350,4090,326,36.2,254,42.3,734,55.2,45.1,96.8,116,497,34.2,179,98.5,113
"COc1cc([C@@H]2c3cc4c(cc3[C@@H](O[C@@H]3O[C@@H]5CO[C@@H](C)O[C@H]5[C@H](O)[C@H]3O)[C@H]3COC(=O)[C@H]23)OCO4)cc(OC)c1O [etoposide] + N#Cc1c(O)c2c(-c3ccc(-c4ccccc4O)cc3)csc2[nH]c1=O [A769662] (first compound 0.02 µM, partner dose 2 µM)",123,43.2,97.5,59.1,121,92,88.3,194,176,101,201,98.7,72.3,104,194,77.2,71.3,39
"CC[C@]1(O)C[C@H]2CN(CCc3c([nH]c4ccccc34)[C@@](C(=O)OC)(c3cc4c(cc3OC)N(C=O)[C@H]3[C@@](O)(C(=O)OC)[C@H](OC(C)=O)[C@]5(CC)C=CCN6CC[C@]43[C@@H]65)C2)C1 [vincristine] + O=S(=O)(c1ccccc1)N(CC(F)(F)F)c1ccc(C(O)(C(F)(F)F)C(F)(F)F)cc1 [T0901317] (first compound 0.0001 µM, partner dose 1.4 µM)",98.3,89.8,127,107,84.1,25.8,84,158,99.2,56,134,365,132,227,109,92.7,467,280
"Cc1ccc(Nc2nccc(N(C)c3ccc4c(C)n(C)nc4c3)n2)cc1S(N)(=O)=O [Pazopanib] + COc1ccc(COc2ccc(Cc3cnc(N)nc3N)cc2OC)cc1 [GW2580] (first compound 0.4 µM, partner dose 1 µM)",172,61.6,121,101,121,72,125,56,65.9,87.8,413,44.4,102,138,128,108,132,84.7
"Cc1cc(Nc2cc(N3CCN(C)CC3)nc(Sc3ccc(NC(=O)C4CC4)cc3)n2)n[nH]1 [Tozasertib] + COc1ccc(-c2ccc3c(N4CCOCC4)nc(N4C[C@@H](C)O[C@@H](C)C4)nc3n2)cc1CO [KU0063794] (first compound 0.006 µM, partner dose 0.02 µM)",125,70.6,116,59.3,95.3,66.7,231,130,55.4,42.9,37.9,86.5,338,45,44.4,71.3,214,42.3
"O=c1[nH]nc(Sc2ncc([N+](=O)[O-])s2)n1-c1ccc2c(c1)OCCO2 + O=C(Nc1ccccc1)c1cc([N+](=O)[O-])ccc1Cl [GW9662] (first compound 0.2 µM, partner dose 2 µM)",122,197,116,136,72.8,268,67.3,79.4,94.9,130,68.6,231,87.4,138,74.8,77.4,43,162
"CCCCCCCCCCCCCCCCCCOP(=O)([O-])OC1CC[N+](C)(C)CC1 [Perifosine] + O=C1NC(=O)/C(=C/c2ccc(-c3ccc(F)cc3O)o2)S1 [AS252424] (first compound 0.4 µM, partner dose 1 µM)",87.9,69.7,53.6,108,65.2,124,70.4,52.4,96.5,48,126,60.4,96.8,147,46.3,66.8,169,32.7

# Four entries from above, reformatted:
Compound	cleaved PARP positive nuclei fraction (COLO792) [%]	cleaved PARP positive nuclei fraction (COLO800) [%]	cleaved PARP positive nuclei fraction (COLO829) [%]	cleaved PARP positive nuclei fraction (G361) [%]	cleaved PARP positive nuclei fraction (IPC-298) [%]	cleaved PARP positive nuclei fraction (IST-MEL1) [%]	cleaved PARP positive nuclei fraction (LB2518-MEL) [%]	cleaved PARP positive nuclei fraction (LOXIMVI) [%]	cleaved PARP positive nuclei fraction (MZ2-MEL) [%]	cleaved PARP positive nuclei fraction (MeWo) [%]	cleaved PARP positive nuclei fraction (RPMI7951) [%]	cleaved PARP positive nuclei fraction (RVH-421) [%]	cleaved PARP positive nuclei fraction (SkMel28) [%]	cleaved PARP positive nuclei fraction (SkMel2) [%]	cleaved PARP positive nuclei fraction (SkMel30) [%]	cleaved PARP positive nuclei fraction (SkMel5) [%]	cleaved PARP positive nuclei fraction (UACC257) [%]	cleaved PARP positive nuclei fraction (UACC62) [%]
Cc1ccc(Nc2nccc(N(C)c3ccc4c(C)n(C)nc4c3)n2)cc1S(N)(=O)=O [Pazopanib] + COc1ccc(-c2ccc3c(N4CCOCC4)nc(N4C[C@@H](C)O[C@@H](C)C4)nc3n2)cc1CO [KU0063794] (first compound 0.4 µM, partner dose 0.02 µM)	103	125	153	272	144	82.4	75.9	73.3	178	63.2	242	123	129	142	29.4	41.5	141	69.8
O=C(/C=C/c1cccnc1)NCCCCC1CCN(C(=O)c2ccccc2)CC1 + CCCCCCCCCCCC1=C(O)C(=O)C=C(O)C1=O [Embelin] (first compound 0.01 µM, partner dose 1.2 µM)	388	321	191	1090	261	93.8	331	178	203	141	107	76	37.7	235	38.6	157	81.5	64.7
O=C(/C=C/c1cccnc1)NCCCCC1CCN(C(=O)c2ccccc2)CC1 + Cn1cc(/C=C2\C(=O)Nc3cccnc32)c2ccccc21 [GW441756] (first compound 0.01 µM, partner dose 0.4 µM)	357	162	350	4090	326	36.2	254	42.3	734	55.2	45.1	96.8	116	497	34.2	179	98.5	113
CCCCCCCCCCCCCCCCCCOP(=O)([O-])OC1CC[N+](C)(C)CC1 [Perifosine] + O=C1NC(=O)/C(=C/c2ccc(-c3ccc(F)cc3O)o2)S1 [AS252424] (first compound 0.4 µM, partner dose 1 µM)	87.9	69.7	53.6	108	65.2	124	70.4	52.4	96.5	48	126	60.4	96.8	147	46.3	66.8	169	32.7
